From PMC10589240
Results are given in words; binding and its absence hold for the method and conditions named. In cells and extracts the contact can be indirect. Binding can be weak; no strength is given.

The chains behind the UniProt entries cited, without tags or fusion partners. Where a name states a change or a piece, a line headed by the entry shows the natural chain unless it says otherwise.
UniProt Q14669: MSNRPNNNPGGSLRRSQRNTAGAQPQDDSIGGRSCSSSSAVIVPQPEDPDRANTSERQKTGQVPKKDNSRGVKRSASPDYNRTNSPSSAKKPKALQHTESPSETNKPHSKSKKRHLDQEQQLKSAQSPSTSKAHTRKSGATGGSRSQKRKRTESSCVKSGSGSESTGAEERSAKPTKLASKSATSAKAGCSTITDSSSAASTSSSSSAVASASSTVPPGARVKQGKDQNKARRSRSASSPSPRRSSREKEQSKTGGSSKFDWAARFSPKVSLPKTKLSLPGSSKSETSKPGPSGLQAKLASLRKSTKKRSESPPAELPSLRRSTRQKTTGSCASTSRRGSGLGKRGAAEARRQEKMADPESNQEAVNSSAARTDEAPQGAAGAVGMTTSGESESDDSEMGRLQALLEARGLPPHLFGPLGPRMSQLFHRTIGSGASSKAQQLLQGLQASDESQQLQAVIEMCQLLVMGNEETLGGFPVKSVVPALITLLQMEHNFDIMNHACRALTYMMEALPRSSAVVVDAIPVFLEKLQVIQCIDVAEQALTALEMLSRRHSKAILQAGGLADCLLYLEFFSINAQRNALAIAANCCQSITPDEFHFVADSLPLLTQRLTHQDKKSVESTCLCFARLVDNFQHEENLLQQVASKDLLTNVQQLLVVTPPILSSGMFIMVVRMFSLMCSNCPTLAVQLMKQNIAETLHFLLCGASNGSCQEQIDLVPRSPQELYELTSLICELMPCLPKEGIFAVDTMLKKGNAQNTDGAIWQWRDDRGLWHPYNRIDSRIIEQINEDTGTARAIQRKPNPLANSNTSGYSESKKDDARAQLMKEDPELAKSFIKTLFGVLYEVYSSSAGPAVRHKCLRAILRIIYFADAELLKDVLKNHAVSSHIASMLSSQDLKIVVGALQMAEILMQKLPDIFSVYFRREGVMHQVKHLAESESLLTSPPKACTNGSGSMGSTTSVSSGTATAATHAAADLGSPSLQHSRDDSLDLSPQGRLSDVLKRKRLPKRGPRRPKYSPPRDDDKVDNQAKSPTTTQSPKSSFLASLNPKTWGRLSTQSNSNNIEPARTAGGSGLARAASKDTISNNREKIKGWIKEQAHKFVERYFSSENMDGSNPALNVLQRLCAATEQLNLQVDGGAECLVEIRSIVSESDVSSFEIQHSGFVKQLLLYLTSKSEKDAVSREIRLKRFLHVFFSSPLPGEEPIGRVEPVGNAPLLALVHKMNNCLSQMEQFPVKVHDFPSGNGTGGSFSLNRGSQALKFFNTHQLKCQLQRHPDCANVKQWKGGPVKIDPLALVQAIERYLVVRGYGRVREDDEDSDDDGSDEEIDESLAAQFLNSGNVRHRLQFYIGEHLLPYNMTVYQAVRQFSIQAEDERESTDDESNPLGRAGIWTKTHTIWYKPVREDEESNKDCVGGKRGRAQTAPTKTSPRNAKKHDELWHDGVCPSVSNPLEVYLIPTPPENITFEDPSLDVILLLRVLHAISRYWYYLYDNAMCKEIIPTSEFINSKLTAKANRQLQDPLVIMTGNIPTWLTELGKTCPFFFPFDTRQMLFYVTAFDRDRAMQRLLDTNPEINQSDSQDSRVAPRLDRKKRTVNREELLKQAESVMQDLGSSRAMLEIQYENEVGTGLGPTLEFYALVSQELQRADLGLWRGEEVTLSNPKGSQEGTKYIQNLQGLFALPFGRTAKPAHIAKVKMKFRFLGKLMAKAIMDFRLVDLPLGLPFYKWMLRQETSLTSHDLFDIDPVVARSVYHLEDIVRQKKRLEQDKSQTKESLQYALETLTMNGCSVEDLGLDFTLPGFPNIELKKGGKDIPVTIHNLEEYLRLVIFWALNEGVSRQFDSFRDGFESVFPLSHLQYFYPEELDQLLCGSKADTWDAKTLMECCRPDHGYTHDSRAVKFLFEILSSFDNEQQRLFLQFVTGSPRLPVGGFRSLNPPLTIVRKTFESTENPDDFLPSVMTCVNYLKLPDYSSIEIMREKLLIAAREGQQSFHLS
UniProt Q13485: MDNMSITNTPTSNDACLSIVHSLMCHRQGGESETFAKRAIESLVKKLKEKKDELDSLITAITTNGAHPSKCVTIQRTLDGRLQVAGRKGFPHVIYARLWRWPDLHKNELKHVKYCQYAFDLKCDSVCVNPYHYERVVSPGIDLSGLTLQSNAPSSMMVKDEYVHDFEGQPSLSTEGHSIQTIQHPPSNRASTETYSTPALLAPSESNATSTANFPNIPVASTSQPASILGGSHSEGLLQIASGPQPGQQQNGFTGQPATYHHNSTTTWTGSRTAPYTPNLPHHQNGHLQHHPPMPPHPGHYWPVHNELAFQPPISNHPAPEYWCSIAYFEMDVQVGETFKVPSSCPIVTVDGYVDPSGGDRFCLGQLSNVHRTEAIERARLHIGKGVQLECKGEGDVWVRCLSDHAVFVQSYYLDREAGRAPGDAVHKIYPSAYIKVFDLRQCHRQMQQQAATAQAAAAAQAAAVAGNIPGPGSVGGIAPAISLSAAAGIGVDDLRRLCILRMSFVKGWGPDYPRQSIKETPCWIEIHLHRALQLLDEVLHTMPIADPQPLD

Legend:
[1] = target: GFP-tagged wildtype TRIP12 (human) (UniProt Q14669); experiment: co-IP; GFP-TRIP12 wildtype and deletion mutants expressed in TRIP12-/- HEK293T cells; IP and Western blot for endogenous SMAD4
[2] = target: Myc-tagged TRIP12 (human) (UniProt Q14669); experiment: co-IP; IP of Myc-TRIP12 with anti-Myc dynabeads from HEK293T cell lysates, Western blot

SMAD4, endogenous (from UniProt Q13485 1-552)
binding [1]: binds | binding [2]: binds
